## Primary screen of a compound library

Measurements from “University of Dundee, Small-Polar-MMV Screening Library” (2021), ChEMBL document CHEMBL3988442.

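Assay of Toxoplasma gondii numbers, read through their beta-galactosidase reporter with a colour substrate. Tested at 50 µM. Higher reads as fewer parasites (inferred from which compounds were picked for retests). About 18,000 compounds were tested under these conditions; 0.94% (about 170) showed 50% or more at least once.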

Values are the deposited “Percent Effect”, in %. How 0% and 100% were set is not recorded. Most values in the screen are low, and negative values occur. The compounds are a random part of those screened.

For CC(C)C(=O)Nc1ccc(-c2cnccc2N)cc1 the result was 7.404%. With CN(C(=O)c1cnn(C)c1)c1ccc2c(c1)CCO2 the screen gave -9.002%. With O=C(NCc1ccccc1OCCO)NCC(F)(F)F the screen gave -3.031%. Result for Cc1cc(F)ccc1C(=O)N1C[C@H](C2CC2)[C@@H](N)C1 was -1.848%. For Cc1cnn(CCNc2cc(C)nc(N)n2)c1 the result was 28.68%. Cc1nnc(SC(C)C(=O)NC2=NCCS2)s1 (stereo not drawn) read -2.883%.

CC1(C)NC(=O)CC1c1ccccc1 (stereo not drawn) gave 8.994%. With NCCc1nnc(N)o1 the screen gave 5.9%. For CNC(=O)C(C)S(=O)(=O)Cc1ccc(F)cc1Cl (stereo not drawn) the result was -3.027%. O=C(Nc1ccc(NCc2ccco2)cn1)C1CC1 read 1.836%. CN(C)CCCNC(=O)c1cc2ccccc2[nH]1 read -2.51%. Cc1ncc(S(C)(=O)=O)c(NCc2ccncc2)n1 read -4.925%.

For COc1cccc(CN2CCCS(=O)(=O)CC2)c1 the result was -4.181%. CS(=O)(=O)NCC1CCCN(c2ncc(Cl)cc2F)C1 (stereo not drawn) gave -3.681%. Result for COc1cccc(CC(=O)N2CCC(N)CC2)c1 was 5.936%. For CCc1cccc(S(=O)(=O)N2CCC(NC)C2)c1 (stereo not drawn) the result was 5.549%. For O=C(NC1=NCCS1)c1cc2cc(F)ccc2s1 the result was -6.521%. COc1cccc(C(=O)N2CCCNCC2)c1 gave 2.703%.

CSC(C)C(=O)N(CCC(N)=O)Cc1ccccc1 (stereo not drawn) gave 4.293%. For CC(CNC(=O)c1cc(C2CC2)[nH]n1)N1CCCC1 (stereo not drawn) the result was 7.519%. For N[C@H]1CC[C@@H](n2cc(Br)cn2)CC1 the result was 5.491%. Result for Cc1oc2ncn(C)c(=O)c2c1C(=O)NC1CC1 was -0.3361%. Result for CC(CO)(CO)NCc1cnn(-c2ccc(Br)cc2)c1 was -3.807%. Cc1ncc(Br)cc1N gave -2.982%.

Result for OCC(NC1CCN(c2nccs2)CC1)c1ccco1 (stereo not drawn) was -0.08364%. With CN1CCN(C(=O)Cc2cccc3cccnc23)CC1 the screen gave 2.326%. With Cn1ccc(C(=O)N2CCOc3ccccc32)cc1=O the screen gave -11.87%. CN(C)C(=O)C1(N)CC1 read 21.2%. Cc1cccc(C(=O)NCC(C)N2CCCC2)n1 (stereo not drawn) gave 4.671%. OCCCN(Cc1ccccc1)Cc1ccccn1 gave -0.1376%.

With CNC(=O)C1CN(C(=O)Cc2ccc(F)cc2)CCO1 (stereo not drawn) the screen gave 0.2336%. Cc1ncccc1CNC(C(N)=O)c1ccc(F)cc1 (stereo not drawn) read -0.2509%. For CC1CC(C)(C)NC1=O (stereo not drawn) the result was 2.56%. With CCNC(=O)CNc1ccnc2ccc(Br)cc12 the screen gave -8.241%. O=C(NC1CCCCC1)C1CCCNC1 (stereo not drawn) read 0.5429%. For CCC(CC)Nc1ccc2nnnn2n1 the result was 3.387%.

For CCOC1CCCNC1 (stereo not drawn) the result was -9.001%. With O=C1N(Cc2ccccc2)CCN1S(=O)(=O)Cl the screen gave 17.87%. With O=C(NCCCN1CCCC1)c1ccccn1 the screen gave 5.474%. Result for CNCC1CCCN(C(=O)c2cccc(C)c2F)C1 (stereo not drawn) was 5.351%. CCCn1c(SCC(N)=O)nnc1C1CC1 gave 1.905%. CCc1nccn1CCNC(=O)[C@H]1CCC[C@@H](O)C1 read -7.607%.

For COc1ccc(N2CCCNCC2)cc1 the result was -22.91%. Result for CN(C)C(=O)CCCOc1nc(C(C)(C)C)no1 was 0.7107%. With CNC(CO)c1ccc(Cl)cc1 (stereo not drawn) the screen gave -0.1226%. For FC(F)(F)c1cccnc1NCC1CCCO1 (stereo not drawn) the result was 0%. For CCCn1nnnc1NCc1ccc2c(c1)OCO2 the result was -3.408%. Cc1ccc(Cl)cc1NCC(=O)N1CCNC1=O read -5.488%.

Once more, the final 3:

Result for FC(F)(F)c1cccnc1NCC1CCCO1 (stereo not drawn) was 0%.
Result for CCCn1nnnc1NCc1ccc2c(c1)OCO2 was -3.408%.
Result for Cc1ccc(Cl)cc1NCC(=O)N1CCNC1=O was -5.488%.